Results are given in words; binding and its absence hold for the method and conditions named. Some results given as binding are weak or reduced against the parent protein; the word gives no strength.
Legend:
β-catenin [1] = target: β-catenin (UniProt P35222); experiment: in situ biotin ligase proximity assay with TSA benzofurazan deposition
β-catenin [2] = target: β-catenin (UniProt P35222); experiment: in situ biotin ligase proximity assays, three schemes
β-catenin [3] = target: β-catenin (UniProt P35222); experiment: in situ biotin ligase proximity assay with hapten labeled anti-antibody bridge, tonsil sample

By UniProt entry, the sequences of proteins in these tests, tags left out. Residues count along the entry.
UniProt P35222, residues 2-781: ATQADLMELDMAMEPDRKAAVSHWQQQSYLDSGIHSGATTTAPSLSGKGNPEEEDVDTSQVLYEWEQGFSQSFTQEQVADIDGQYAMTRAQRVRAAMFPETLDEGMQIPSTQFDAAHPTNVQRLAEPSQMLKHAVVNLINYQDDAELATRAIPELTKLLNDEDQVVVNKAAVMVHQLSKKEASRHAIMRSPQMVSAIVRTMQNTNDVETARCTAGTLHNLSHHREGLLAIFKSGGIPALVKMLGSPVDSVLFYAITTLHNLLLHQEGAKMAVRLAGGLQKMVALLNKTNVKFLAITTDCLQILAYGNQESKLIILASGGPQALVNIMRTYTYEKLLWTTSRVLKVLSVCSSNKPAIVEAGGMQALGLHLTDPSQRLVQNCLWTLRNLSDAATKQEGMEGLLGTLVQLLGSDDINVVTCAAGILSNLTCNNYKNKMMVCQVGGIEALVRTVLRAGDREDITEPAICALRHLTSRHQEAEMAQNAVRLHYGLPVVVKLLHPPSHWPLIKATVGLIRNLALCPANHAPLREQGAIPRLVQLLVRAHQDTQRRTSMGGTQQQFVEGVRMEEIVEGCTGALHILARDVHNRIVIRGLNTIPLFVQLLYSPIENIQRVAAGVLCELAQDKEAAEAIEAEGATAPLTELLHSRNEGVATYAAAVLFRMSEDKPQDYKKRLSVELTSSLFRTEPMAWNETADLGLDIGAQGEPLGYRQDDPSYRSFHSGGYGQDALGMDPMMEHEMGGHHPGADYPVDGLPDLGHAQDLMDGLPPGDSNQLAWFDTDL
UniProt P12830, residues 155-882: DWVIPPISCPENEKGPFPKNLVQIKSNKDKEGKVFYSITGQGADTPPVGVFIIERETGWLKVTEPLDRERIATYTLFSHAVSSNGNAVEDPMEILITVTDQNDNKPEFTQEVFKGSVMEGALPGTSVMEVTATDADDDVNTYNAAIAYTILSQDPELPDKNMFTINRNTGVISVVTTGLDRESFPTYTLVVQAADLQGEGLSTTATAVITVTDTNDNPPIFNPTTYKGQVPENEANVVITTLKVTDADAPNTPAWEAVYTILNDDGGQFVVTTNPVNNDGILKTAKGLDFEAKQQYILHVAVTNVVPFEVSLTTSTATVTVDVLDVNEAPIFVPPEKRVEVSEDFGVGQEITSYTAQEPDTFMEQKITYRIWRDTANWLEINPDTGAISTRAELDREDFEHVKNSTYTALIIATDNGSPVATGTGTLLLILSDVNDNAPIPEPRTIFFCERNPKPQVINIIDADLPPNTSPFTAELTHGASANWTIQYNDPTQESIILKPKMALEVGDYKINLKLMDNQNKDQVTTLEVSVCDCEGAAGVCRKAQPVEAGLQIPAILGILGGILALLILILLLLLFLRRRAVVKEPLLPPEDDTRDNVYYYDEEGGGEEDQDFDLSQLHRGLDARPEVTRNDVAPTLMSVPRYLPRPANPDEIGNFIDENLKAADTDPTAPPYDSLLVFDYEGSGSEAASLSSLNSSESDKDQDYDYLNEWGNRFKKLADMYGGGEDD

- binding (β-catenin [1]): binds
- binding (β-catenin [2]): binds
- binding (β-catenin [3]): binds
Substance: E-cadherin (from UniProt P12830 155-882)

Reference: patent US20160002701A1
